Results deposited as PubChem BioAssay AID602196 (INSERM, 2012).

Aim: 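Knock-downs that protect lung cancer cells from cisplatin or sensitise them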
Cell system: human A549 lung cancer cells
Reagents: siRNA pair against human genes
Timing: 48 h transfection before cisplatin; time from cisplatin to read-out not stated
Treatment: cisplatin at a dose killing half of control-siRNA cells; exact dose and duration not given
Read-out: 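Shift in cisplatin death relative to control siRNA, from -50 (all cells die) to +50 (no cells die); siRNAs harmful on their own scored 0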
Reading the numbers: two-siRNA summed score (-2 to +2): higher = both siRNAs protect from cisplatin killing; -2 means both sensitise; mean protection from cisplatin (shift in death): higher = protection from cisplatin killing
Active means: 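Each siRNA scores 0 if harmful alone by LDH or WST-1, otherwise +1 if it reduces and -1 if it increases cisplatin killing; a gene is active when both siRNAs agree (sum +2 or -2)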
Calls: active = both siRNAs shift cisplatin killing the same way; inactive = no consistent shift, or siRNA harmful alone
The whole screen tested about 23,000 reagents; shown is an unselected part. Of all reagents, 455 (2%) got an active call. 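Active includes both protection and sensitisation; some change values fall well beyond the stated -50 to +50 range.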 Not all columns of the deposit are shown. The record does not give: the amount of reagent.

What did the screen give for OR2W3?
two-siRNA summed score (-2 to +2): -1; mean protection from cisplatin (shift in death) (%): -3; Outcome: inactive

With LOC283530, what does the deposit list?
two-siRNA summed score (-2 to +2): 0; mean protection from cisplatin (shift in death) (%): 6.5; Outcome: inactive

With ASMTL, what does the deposit list?
two-siRNA summed score (-2 to +2): 0; mean protection from cisplatin (shift in death) (%): 0.4; Outcome: inactive

For OR8H1, how do the results read?
two-siRNA summed score (-2 to +2): 1; mean protection from cisplatin (shift in death) (%): 7.3; Outcome: inactive

With CR1L, what was measured?
two-siRNA summed score (-2 to +2): 1; mean protection from cisplatin (shift in death) (%): 20.3; Outcome: inactive

With ALB, what does the deposit list?
two-siRNA summed score (-2 to +2): 0; mean protection from cisplatin (shift in death) (%): 6.5; Outcome: inactive

Which result is listed for LOC389734?
two-siRNA summed score (-2 to +2): 0; mean protection from cisplatin (shift in death) (%): 5.7; Outcome: inactive

How did the screen score NDST3?
two-siRNA summed score (-2 to +2): 0; mean protection from cisplatin (shift in death) (%): -3.9; Outcome: inactive

With ACADM, how do the results read?
two-siRNA summed score (-2 to +2): 1; mean protection from cisplatin (shift in death) (%): 13.1; Outcome: inactive

Which result is listed for LOC147468?
two-siRNA summed score (-2 to +2): 0; mean protection from cisplatin (shift in death) (%): -4.2; Outcome: inactive

What did the screen give for CPA1?
two-siRNA summed score (-2 to +2): -1; mean protection from cisplatin (shift in death) (%): -5; Outcome: inactive

Which result is listed for FLJ20753?
two-siRNA summed score (-2 to +2): 0; mean protection from cisplatin (shift in death) (%): 12.5; Outcome: inactive

2 of these entries, set out differently.
gene,two-siRNA summed score (-2 to +2),mean protection from cisplatin (shift in death) (%),Outcome
ALB,0,6.5,inactive
LOC389734,0,5.7,inactive
